Laboratory results reported in the supplement of paper PMC10849652.
This is one part of the list.

Sequences of proteins named here, by UniProt entry; tags and fusion partners are left off. A change or cut given only in a name is not applied to a line headed by its entry.
UniProt Q96B96: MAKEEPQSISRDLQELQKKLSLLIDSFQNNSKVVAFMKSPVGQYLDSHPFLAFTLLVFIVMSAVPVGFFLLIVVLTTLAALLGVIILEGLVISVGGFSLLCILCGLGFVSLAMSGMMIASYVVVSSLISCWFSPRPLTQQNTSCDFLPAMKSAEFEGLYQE
UniProt O94876, whole entry, looked up: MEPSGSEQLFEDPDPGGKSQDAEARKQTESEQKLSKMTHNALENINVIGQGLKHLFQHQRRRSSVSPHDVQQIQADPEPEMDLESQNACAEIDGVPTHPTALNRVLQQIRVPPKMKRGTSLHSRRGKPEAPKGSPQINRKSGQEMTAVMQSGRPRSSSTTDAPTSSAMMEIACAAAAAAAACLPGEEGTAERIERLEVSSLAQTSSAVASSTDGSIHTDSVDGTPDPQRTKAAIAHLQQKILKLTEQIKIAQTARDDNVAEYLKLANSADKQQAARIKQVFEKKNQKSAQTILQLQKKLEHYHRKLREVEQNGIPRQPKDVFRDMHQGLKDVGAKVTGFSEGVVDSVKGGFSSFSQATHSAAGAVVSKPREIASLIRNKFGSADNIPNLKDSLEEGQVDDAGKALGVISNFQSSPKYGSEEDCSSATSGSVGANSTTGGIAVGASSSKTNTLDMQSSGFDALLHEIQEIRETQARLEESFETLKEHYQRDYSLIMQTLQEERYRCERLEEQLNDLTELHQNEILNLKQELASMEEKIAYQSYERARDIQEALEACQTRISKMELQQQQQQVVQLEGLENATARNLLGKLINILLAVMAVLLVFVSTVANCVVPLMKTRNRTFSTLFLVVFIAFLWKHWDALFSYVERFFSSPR
UniProt Q1AE95: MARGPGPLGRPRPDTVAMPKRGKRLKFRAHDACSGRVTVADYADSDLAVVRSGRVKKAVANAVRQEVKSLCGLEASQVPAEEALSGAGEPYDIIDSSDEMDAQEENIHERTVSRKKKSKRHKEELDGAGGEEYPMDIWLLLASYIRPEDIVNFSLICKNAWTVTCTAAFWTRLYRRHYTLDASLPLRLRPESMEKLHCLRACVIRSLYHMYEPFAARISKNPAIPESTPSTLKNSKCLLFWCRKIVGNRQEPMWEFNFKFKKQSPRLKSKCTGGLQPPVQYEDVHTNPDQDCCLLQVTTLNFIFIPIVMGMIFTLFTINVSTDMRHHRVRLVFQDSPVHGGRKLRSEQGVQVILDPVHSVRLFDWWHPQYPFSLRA
UniProt Q7Z6K1, whole entry, looked up: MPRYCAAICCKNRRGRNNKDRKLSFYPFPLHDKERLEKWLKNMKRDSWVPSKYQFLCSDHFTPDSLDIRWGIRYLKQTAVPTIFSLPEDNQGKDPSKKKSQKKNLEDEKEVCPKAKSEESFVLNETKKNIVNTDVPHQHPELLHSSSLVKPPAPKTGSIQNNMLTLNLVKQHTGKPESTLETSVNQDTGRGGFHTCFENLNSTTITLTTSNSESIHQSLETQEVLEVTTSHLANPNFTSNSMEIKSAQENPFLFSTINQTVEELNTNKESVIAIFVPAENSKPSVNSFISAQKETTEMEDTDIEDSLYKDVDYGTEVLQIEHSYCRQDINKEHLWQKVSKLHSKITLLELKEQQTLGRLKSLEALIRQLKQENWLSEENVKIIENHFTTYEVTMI
UniProt P51854: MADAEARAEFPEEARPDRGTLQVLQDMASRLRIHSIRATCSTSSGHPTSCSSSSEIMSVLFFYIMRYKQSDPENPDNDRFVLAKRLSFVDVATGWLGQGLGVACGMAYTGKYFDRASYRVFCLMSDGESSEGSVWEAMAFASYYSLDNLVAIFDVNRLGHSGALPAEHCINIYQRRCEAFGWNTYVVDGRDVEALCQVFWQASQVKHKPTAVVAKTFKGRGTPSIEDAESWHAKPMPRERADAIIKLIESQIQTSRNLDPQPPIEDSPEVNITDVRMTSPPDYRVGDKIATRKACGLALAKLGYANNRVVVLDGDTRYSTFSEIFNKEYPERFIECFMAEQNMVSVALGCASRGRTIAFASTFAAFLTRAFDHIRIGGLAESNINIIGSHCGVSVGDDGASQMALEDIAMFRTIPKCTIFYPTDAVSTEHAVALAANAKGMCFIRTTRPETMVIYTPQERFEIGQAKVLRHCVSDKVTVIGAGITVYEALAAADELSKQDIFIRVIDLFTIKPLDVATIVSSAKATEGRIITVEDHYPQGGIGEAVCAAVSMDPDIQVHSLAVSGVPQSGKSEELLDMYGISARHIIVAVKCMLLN
UniProt Q8WTV1: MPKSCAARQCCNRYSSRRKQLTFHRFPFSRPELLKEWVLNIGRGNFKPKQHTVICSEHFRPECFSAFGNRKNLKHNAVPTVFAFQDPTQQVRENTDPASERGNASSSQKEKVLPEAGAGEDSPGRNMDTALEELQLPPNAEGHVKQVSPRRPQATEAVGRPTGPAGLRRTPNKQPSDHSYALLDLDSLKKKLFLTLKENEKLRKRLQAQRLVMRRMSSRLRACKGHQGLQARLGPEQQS
UniProt Q7Z402: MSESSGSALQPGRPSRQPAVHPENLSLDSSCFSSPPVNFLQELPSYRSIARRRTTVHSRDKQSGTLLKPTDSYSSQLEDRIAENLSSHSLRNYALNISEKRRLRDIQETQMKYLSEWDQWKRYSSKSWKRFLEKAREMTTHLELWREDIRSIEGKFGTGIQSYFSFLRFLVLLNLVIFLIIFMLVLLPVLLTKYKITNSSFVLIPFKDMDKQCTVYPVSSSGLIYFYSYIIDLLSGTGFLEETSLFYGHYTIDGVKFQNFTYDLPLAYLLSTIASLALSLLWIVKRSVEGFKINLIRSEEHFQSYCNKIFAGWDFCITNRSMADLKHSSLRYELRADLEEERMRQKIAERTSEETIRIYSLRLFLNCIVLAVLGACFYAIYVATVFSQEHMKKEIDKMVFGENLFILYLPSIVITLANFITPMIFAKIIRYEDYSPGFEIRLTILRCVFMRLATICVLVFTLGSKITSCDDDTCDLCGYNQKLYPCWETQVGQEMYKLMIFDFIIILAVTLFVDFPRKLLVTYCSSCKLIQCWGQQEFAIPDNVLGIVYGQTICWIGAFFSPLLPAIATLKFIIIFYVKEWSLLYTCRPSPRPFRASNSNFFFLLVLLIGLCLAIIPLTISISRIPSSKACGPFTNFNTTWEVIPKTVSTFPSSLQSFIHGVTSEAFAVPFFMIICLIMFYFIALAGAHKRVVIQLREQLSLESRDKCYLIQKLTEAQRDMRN
UniProt Q9H6X4: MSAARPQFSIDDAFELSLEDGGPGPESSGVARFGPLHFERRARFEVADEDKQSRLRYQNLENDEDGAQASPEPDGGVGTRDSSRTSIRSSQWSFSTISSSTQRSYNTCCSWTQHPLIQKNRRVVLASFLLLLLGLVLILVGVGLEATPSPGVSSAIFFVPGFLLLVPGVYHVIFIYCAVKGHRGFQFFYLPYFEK
UniProt Q9Y3Q3: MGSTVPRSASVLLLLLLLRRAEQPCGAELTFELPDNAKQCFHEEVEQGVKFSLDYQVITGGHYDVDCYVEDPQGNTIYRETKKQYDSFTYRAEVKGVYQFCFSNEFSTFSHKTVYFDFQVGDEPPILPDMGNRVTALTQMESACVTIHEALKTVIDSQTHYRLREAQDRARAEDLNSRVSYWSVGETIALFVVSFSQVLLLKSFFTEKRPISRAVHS
UniProt Q15583: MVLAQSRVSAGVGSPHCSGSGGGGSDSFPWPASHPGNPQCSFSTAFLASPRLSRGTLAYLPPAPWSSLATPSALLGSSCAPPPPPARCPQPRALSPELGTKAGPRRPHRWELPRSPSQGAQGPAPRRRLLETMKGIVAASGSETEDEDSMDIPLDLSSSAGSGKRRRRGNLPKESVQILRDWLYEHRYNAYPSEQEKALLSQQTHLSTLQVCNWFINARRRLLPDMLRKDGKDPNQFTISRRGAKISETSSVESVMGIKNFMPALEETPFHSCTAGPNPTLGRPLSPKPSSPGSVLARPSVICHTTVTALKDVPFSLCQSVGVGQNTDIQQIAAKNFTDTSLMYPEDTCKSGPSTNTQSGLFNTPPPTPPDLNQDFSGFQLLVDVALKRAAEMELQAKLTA
UniProt Q6P9G4: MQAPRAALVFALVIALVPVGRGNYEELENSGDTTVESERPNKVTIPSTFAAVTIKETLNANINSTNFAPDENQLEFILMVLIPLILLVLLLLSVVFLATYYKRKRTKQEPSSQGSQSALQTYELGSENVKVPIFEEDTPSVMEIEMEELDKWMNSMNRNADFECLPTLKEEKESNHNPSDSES
UniProt P36897: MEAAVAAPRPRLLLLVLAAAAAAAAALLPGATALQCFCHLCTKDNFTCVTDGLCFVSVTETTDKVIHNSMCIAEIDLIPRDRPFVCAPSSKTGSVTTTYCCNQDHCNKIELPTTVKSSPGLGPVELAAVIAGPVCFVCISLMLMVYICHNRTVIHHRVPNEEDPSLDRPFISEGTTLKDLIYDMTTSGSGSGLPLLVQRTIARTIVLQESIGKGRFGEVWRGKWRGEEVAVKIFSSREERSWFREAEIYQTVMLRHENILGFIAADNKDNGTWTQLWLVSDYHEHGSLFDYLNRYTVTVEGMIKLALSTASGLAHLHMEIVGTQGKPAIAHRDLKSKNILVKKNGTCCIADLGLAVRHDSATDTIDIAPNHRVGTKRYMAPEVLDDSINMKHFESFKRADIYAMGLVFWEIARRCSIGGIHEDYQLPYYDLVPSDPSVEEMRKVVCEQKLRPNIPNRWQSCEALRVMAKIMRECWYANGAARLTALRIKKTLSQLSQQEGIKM
UniProt Q86UE8, whole entry, looked up: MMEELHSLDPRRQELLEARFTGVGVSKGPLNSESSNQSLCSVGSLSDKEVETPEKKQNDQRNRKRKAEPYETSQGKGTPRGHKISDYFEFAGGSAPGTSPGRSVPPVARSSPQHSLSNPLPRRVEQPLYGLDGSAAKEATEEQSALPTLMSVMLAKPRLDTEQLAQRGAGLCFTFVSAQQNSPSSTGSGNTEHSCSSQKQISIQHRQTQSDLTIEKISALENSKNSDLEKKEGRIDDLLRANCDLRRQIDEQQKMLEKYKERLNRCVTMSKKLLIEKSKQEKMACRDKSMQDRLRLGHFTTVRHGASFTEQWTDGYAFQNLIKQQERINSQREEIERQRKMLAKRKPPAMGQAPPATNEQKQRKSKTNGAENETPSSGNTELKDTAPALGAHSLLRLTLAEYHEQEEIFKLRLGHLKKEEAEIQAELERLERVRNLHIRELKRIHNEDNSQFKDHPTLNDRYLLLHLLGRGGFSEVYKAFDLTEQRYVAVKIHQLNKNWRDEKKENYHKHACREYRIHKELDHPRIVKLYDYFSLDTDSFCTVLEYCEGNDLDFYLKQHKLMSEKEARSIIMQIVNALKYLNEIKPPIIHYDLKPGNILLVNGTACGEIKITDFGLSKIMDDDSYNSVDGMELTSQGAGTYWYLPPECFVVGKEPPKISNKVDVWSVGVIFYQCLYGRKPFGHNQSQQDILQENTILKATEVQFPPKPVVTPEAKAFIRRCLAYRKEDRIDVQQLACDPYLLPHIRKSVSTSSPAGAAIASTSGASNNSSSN
UniProt Q24JP5: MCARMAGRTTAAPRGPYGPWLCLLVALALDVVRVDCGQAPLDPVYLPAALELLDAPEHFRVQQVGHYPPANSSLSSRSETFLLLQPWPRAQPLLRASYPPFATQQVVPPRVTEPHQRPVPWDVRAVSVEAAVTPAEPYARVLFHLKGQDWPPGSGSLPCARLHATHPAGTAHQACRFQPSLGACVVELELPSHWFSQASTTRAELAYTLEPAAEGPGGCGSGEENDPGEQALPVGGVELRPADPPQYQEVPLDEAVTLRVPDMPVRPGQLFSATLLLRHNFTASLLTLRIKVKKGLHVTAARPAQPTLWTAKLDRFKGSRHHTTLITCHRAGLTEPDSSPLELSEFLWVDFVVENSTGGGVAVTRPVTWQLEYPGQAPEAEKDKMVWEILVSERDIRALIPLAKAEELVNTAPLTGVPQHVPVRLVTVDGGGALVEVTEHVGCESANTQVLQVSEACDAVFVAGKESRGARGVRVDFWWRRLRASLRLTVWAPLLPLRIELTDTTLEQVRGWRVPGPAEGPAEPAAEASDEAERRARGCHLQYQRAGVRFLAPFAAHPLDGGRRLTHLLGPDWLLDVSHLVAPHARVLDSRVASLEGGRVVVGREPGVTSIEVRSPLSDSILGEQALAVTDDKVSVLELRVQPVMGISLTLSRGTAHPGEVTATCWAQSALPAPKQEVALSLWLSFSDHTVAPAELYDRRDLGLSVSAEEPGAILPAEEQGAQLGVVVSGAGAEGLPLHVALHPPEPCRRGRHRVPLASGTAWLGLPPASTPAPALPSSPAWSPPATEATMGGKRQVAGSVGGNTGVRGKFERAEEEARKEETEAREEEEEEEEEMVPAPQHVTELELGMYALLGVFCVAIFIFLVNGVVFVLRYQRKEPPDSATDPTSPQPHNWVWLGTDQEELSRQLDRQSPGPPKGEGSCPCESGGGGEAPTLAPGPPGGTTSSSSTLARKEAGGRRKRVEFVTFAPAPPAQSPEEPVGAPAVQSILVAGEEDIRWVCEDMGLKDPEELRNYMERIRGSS

Key:
Experiment in all cases: log2 fold change, soluble protein after heating vs DMSO (PISA); higher = thermal stabilisation; K562 lysate, 10 uM; active = over 0.2 and 3.5 SD of the protein, either way, in both replicates (recomputed)
[1] = compound: CCCS(=O)(=O)Nc1ccc(F)c(C(=O)c2c[nH]c3ncc(Cl)cc23)c1F
In short: (§1)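 Thermal stability, expressed as log-two fold change relative to solvent controls, is given from duplicates. Crude K562 extract in PBS pH 7.4 with 1 mM MgCl2, at 1 mg/mL protein, was treated with 10 μM compound for 30 min and heated in aliquots for 3 min across 48°C-58°C. After pooling, adjustment to 0.5% NP-40 at 4°C and centrifugation at 21,000xg for 90 min, supernatant protein was measured by TMTpro 16plex LC-MS/MS with channel sums equalised.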

barasertib = compound: CCN(CCCOc1ccc2c(Nc3cc(CC(=O)Nc4cccc(F)c4)[nH]n3)ncnc2c1)CCOP(=O)(O)O [barasertib]
In short: as §1

[2] = compound: CC[C@@H]1C(=O)N(C)c2cnc(Nc3ccc(C(=O)NC4CCN(C)CC4)cc3OC)nc2N1C1CCCC1
In short: as §1

volasertib = compound: CC[C@@H]1C(=O)N(C)c2cnc(Nc3ccc(C(=O)N[C@H]4CC[C@H](N5CCN(CC6CC6)CC5)CC4)cc3OC)nc2N1C(C)C [volasertib]
In short: as §1

[3] = compound: CCn1c(C(=O)N(C2CC2)C2CC2)cc2c3c(ncn3C)c(Nc3cc(C)n(C)n3)nc21
In short: as §1

[4] = compound: CCn1cc(-c2ccnc3[nH]c(-c4cccc(CN(C)C)c4)cc23)c(-c2ccc(NC(=O)N(C)C)cc2)n1
In short: as §1

[5] = compound: CN1CCC(CNc2ccc3ncc(-c4cccc(OC(F)(F)F)c4)n3n2)CC1
In short: as §1

saracatinib = compound: CN1CCN(CCOc2cc(OC3CCOCC3)c3c(Nc4c(Cl)ccc5c4OCO5)ncnc3c2)CC1 [saracatinib]
In short: as §1

sotrastaurin = compound: CN1CCN(c2nc(C3=C(c4c[nH]c5ccccc45)C(=O)NC3=O)c3ccccc3n2)CC1 [sotrastaurin]
In short: as §1

alvocidib = compound: CN1CC[C@H](c2c(O)cc(O)c3c(=O)cc(-c4ccccc4Cl)oc23)[C@H](O)C1 [alvocidib]
In short: as §1

Tubastatin A = compound: CN1CCc2c(c3ccccc3n2Cc2ccc(C(=O)NO)cc2)C1 [Tubastatin A]
In short: as §1

[6] = compound: CNC(=O)C1=CC=CC=C1NC2=NC(=NC=C2Cl)NC3=C(C=C(C=C3)N4CCOCC4)OC
In short: as §1

[7] = compound: CNc1nc(-c2ccc3c(N)n[nH]c3c2)cc(N2C[C@@H](C(=O)NC3CCCCC3)CC[C@H]2C)n1
In short: as §1

encorafenib = compound: COC(=O)N[C@@H](C)CNc1nccc(-c2cn(C(C)C)nc2-c2cc(Cl)cc(NS(C)(=O)=O)c2F)n1 [encorafenib]
In short: as §1

[8] = compound: COC(=O)[C@H](CCSC)NC(=O)C1=C(C=C(C=C1)NC[C@H](CS)N)C2=CC=CC=C2
In short: as §1

alisertib = compound: COc1cc(Nc2ncc3c(n2)-c2ccc(Cl)cc2C(c2c(F)cccc2OC)=NC3)ccc1C(=O)O [alisertib]
In short: as §1

[9] = compound: COc1cc2nc(-c3cc(F)ccc3O)nc(N[C@@H]3CNC[C@H]3C(C)(C)O)c2cc1OC
In short: as §1

gefitinib = compound: COc1cc2ncnc(Nc3ccc(F)c(Cl)c3)c2cc1OCCCN1CCOCC1 [gefitinib]
In short: as §1

vemurafenib = compound: CCCS(=O)(=O)Nc1ccc(F)c(C(=O)c2c[nH]c3ncc(-c4ccc(Cl)cc4)cc23)c1F [vemurafenib]
In short: as §1

defactinib = compound: CNC(=O)c1ccc(Nc2ncc(C(F)(F)F)c(NCc3nccnc3N(C)S(C)(=O)=O)n2)cc1 [defactinib]
In short: as §1

Measured: log2 fold change

TLE3 isoform 5 (UniProt Q04726)
inactive: [1] 0.037 | barasertib -0.176 | [2] 0.026 | volasertib -0.025 | [3] 0.034 | [4] 0.101 | [5] 0.178 | saracatinib 0.049 | sotrastaurin 0.015 | alvocidib -0.153 | Tubastatin A -0.06 | [6] 0.004 | [7] 0.011 | encorafenib -0.02 | [8] 0.002 | alisertib 0 | [9] 0.008 | gefitinib 0.009

TMEM159 isoform 2 (UniProt Q96B96)
inactive: [1] 0.061 | barasertib 0.035 | [2] 0.027 | volasertib 0.089 | [3] 0.085 | [4] -0.024 | [5] -0.064 | saracatinib 0.178 | sotrastaurin 0.02 | alvocidib -0.039 | Tubastatin A -0.011 | [6] -0.056 | [7] -0.17 | encorafenib 0.135 | [8] -0.1 | alisertib -0.056 | [9] 0.015 | gefitinib -0.045

TGM2 (UniProt A2A299)
inactive: [1] 0.051 | volasertib -0.114 | alisertib 0.044 | [9] -0.008 | gefitinib -0.048

TKT, A0A0B4J1R6
inactive: [1] -0.032 | volasertib 0.033 | [3] -0.111 | [4] -0.276 | [5] 0.344 | saracatinib 0.067 | sotrastaurin 0.183 | alvocidib -0.121 | Tubastatin A 0.092 | [6] -0.12 | [7] -0.141 | alisertib 0.164 | [9] 0.011 | gefitinib 0.299

TMCC1 (UniProt O94876)
inactive: vemurafenib 0.048 | [2] 0.199 | [4] -0.103 | [5] 0.081 | saracatinib 0.075 | alvocidib 0 | defactinib 0.113 | [7] -0.132 | encorafenib 0.242 | [8] -0.106

TMEM183B (UniProt Q1AE95)
inactive: vemurafenib 0.297 | [3] 0.06 | [4] -0.46 | [5] -0.031 | alvocidib 0.004 | Tubastatin A 0.109 | defactinib -0.671

THAP5 (UniProt Q7Z6K1)
inactive: saracatinib 0.166 | [7] -0.164

TKTL1 (UniProt P51854)
inactive: [2] 0.054 | [4] 0.192 | [5] -0.021 | saracatinib -0.027 | alvocidib 0.074 | [7] -0.039 | encorafenib -0.235 | [8] 0.299

THAP3 (UniProt Q8WTV1)
inactive: [3] 0.035 | sotrastaurin -0.036 | Tubastatin A 0.063 | [6] -0.049 | alisertib 0.034 | gefitinib -0.025

TMEM184C (UniProt Q9NVA4)
inactive: [1] -0.008 | barasertib -0.19 | [2] 0.02 | volasertib 0.02 | [3] -0.062 | saracatinib 0.043 | sotrastaurin 0.006 | Tubastatin A 0.066 | [6] -0.042 | [7] -0.004 | encorafenib -0.041 | [8] -0.056 | alisertib -0.042 | [9] 0.137 | gefitinib 0.071

TMC7 (UniProt Q7Z402)
inactive: [4] -0.021 | [5] 0.06 | alvocidib -0.005 | [6] 0.038

TMEM134 (UniProt Q9H6X4)
inactive: [1] 0.08 | volasertib 0 | [3] -0.039 | [4] 0.048 | [5] 0.061 | saracatinib 0.099 | sotrastaurin -0.055 | alvocidib -0.193 | Tubastatin A -0.079 | [6] -0.109 | [7] 0.029 | [9] -0.214

TMED3 (UniProt Q9Y3Q3)
inactive: [1] -0.007 | barasertib -0.232 | volasertib -0.035 | [3] 0.098 | [4] -0.041 | [5] -0.071 | sotrastaurin 0.05 | alvocidib 0 | Tubastatin A 0.146 | [6] 0.019 | [9] -0.197

TGIF1 (UniProt Q15583)
inactive: sotrastaurin 0.054 | [6] 0.067

TMEM154 (UniProt Q6P9G4)
inactive: [2] 0.022 | [3] -0.08 | saracatinib -0.036 | sotrastaurin 0.116 | Tubastatin A 0.063 | [7] -0.099 | encorafenib -0.015 | [8] 0.023

TGFBR1 isoform 2 (UniProt P36897)
inactive: [2] -0.005 | [6] 0.156 | [7] -0.004 | encorafenib -0.017 | [8] 0.077
active: saracatinib 1.04

Looked up one by one from above, 2 records:
TMEM184C (UniProt Q9NVA4)
inactive: [1] -0.008 | barasertib -0.19 | [2] 0.02 | volasertib 0.02 | [3] -0.062 | saracatinib 0.043 | sotrastaurin 0.006 | Tubastatin A 0.066 | [6] -0.042 | [7] -0.004 | encorafenib -0.041 | [8] -0.056 | alisertib -0.042 | [9] 0.137 | gefitinib 0.071

TMEM183B (UniProt Q1AE95)
inactive: vemurafenib 0.297 | [3] 0.06 | [4] -0.46 | [5] -0.031 | alvocidib 0.004 | Tubastatin A 0.109 | defactinib -0.671

More entries

TLK2 isoform 3 (UniProt Q86UE8)
inactive: [4] 0.104 | [5] -0.036 | alvocidib 0.007

THAP7 (UniProt Q9BT49)
inactive: alisertib 0.001 | gefitinib 0

TMEM132A isoform 2 (UniProt Q24JP5)
inactive: [1] 0.239 | [2] -0.078 | volasertib -0.144 | [3] 0.028 | [4] 0.055 | [5] 0.3 | sotrastaurin 0.044 | alvocidib -0.381 | Tubastatin A 0.136 | [6] -0.097 | encorafenib -0.064 | [8] -0.042
active: [9] 1.16
